These are yes or no findings as the source states them, for the method shown. In cells and extracts the contact can be indirect. Some entries that bind do so weakly or less than the wild type.
Key:
[1] = target: SMAD2 (endogenous, mouse embryonic stem cells) (mouse (endogenous in ES-E14TG2a.4 mESCs)) (UniProt Q62432); assay: co-IP; mESCs incubated with Activin A for 1.5 h, fractionated into nuclear and cytosolic fractions; anti-SMAD2 and anti-SMAD3 immunoprecipitates blotted with anti-SMAD4 and anti-SMAD2/3 (Nuclear Complex Co-IP Kit)
[2] = target: SMAD3 (endogenous, mouse embryonic stem cells) (mouse (endogenous in ES-E14TG2a.4 mESCs)) (UniProt Q8BUN5); assay: as above
[3] = target: SMAD2 (endogenous, mouse embryonic stem cells) (mouse (endogenous in ES-E14TG2a.4 mESCs)) (UniProt Q62432); assay: condition: only cells treated with the Nodal/Activin receptor inhibitor SB431542 (SB) for 6 h; co-IP; mESCs incubated with SB431542 (SB) for 6 h, fractionated into nuclear and cytosolic fractions; anti-SMAD2 and anti-SMAD3 immunoprecipitates blotted with anti-SMAD4 and anti-SMAD2/3
[4] = target: SMAD3 (endogenous, mouse embryonic stem cells) (mouse (endogenous in ES-E14TG2a.4 mESCs)) (UniProt Q8BUN5); assay: as above
[5] = target: SMAD4 (endogenous, mouse embryonic stem cells) (mouse (endogenous in ES-E14TG2a.4 mESCs)) (UniProt P97471); assay: co-IP; wild-type and S2ΔE3 mESCs incubated with SB for 6 h, then 2 h with SB or the indicated concentrations of Activin; anti-SMAD4 immunoprecipitates from whole-cell lysate blotted with anti-SMAD2/2β or anti-SMAD4

Protein sequences, listed by entry. Tags and fused reporters are not part of them. Lines headed by an entry give the natural chain unless they say otherwise; changes in a name come on top. Chains listed by the source or under a name are the forms on record and can include a tag or linker.
UniProt Q62432: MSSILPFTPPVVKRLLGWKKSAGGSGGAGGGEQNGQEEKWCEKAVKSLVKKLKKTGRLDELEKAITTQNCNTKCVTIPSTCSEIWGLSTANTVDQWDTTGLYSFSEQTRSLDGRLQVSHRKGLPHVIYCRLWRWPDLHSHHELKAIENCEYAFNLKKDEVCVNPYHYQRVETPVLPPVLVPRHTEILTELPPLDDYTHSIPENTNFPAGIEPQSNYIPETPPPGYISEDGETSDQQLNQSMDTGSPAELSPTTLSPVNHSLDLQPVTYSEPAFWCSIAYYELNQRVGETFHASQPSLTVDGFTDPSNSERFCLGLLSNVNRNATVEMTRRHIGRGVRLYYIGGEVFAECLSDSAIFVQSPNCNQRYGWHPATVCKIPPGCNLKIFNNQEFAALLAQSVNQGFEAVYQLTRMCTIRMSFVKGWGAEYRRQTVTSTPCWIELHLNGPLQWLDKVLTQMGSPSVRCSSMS
SMAD2β (expressed from the endogenous Smad2 locus of S2ΔE3 mouse embryonic stem cells) (Q62432-2, form named): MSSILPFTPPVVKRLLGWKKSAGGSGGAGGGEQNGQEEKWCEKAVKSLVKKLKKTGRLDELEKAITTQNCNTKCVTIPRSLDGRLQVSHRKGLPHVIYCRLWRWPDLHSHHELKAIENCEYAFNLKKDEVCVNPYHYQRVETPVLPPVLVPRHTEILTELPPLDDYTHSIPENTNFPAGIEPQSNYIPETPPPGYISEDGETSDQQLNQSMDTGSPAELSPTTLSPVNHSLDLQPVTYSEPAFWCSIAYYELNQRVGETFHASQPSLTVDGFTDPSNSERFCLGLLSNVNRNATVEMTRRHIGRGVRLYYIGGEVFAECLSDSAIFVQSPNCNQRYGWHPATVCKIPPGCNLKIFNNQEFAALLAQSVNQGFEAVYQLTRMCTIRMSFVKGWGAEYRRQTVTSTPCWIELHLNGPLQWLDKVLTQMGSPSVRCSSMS
UniProt Q8BUN5: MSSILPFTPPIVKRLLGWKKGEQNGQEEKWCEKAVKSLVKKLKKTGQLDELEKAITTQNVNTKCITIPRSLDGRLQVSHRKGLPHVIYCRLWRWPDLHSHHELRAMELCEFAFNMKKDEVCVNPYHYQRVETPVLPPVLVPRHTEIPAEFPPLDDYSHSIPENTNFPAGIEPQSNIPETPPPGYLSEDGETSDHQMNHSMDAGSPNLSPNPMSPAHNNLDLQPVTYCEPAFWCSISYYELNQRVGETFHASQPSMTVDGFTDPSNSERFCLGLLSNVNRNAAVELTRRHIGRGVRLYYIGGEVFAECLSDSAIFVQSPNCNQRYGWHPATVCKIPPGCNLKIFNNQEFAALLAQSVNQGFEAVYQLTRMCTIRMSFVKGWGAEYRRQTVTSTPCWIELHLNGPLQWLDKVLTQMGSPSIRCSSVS
UniProt P97471: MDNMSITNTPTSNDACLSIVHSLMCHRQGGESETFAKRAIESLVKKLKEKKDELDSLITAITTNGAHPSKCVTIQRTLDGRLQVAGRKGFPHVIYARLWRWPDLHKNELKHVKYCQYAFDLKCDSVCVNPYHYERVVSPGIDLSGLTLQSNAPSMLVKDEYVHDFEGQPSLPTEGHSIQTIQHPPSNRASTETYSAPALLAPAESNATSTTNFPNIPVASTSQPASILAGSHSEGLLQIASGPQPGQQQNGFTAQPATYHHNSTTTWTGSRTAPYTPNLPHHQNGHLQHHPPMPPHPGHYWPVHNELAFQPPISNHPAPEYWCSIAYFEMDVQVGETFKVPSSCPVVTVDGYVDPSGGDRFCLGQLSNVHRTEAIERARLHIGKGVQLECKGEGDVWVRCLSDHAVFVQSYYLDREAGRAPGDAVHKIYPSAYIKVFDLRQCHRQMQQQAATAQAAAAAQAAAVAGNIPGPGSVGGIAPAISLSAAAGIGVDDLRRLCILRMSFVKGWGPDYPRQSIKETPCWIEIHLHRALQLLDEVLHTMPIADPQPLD

binding [1]	binding [2]	binding [3]	binding [4]	binding [5]	Substance
binds	binds weakly	no binding	no binding	–	SMAD4 (endogenous, mouse embryonic stem cells) (from UniProt P97471 1-551)
–	–	–	–	binds	SMAD2 (endogenous, mouse embryonic stem cells) (from UniProt Q62432 1-467)
–	–	–	–	binds	SMAD2β (expressed from the endogenous Smad2 locus of S2ΔE3 mouse embryonic stem cells) (from UniProt Q62432-2 1-437)

— paper PMC6824466
